# Results reported in the supplement of paper PMC8728848.
# The list shows a part of the results.
# B1: Pwp1 (Candida glabrata) (protein)
# chain: MGSSHHHHHHSSGLVPRGSHMASANPISITNVCQFPDNWARTAGFQATTVRLGLTIASNTYKELLNYPGLFNFATQKATVTQPNFSISGFPFFTGLYGLTVWPINLLVELQGYFVPPESGNYTFTLQGSDDAAILFFANPSTFACGSQNDWPQPREADITVTDTLVPSRTLYLVKGVAYPIRIAYYNGSGDGKLNVSFKDPSGTTHTDWKGYVWQYSNTCSTCTYT
# Tests used:
# Experiment in all cases: glycan array binding signal (z-score within array); higher = stronger binding
# Details in all cases: glycan notation: IUPAC condensed, linker removed
# [1] = biological target: Neu5Ac(a2-6)Gal(b1-4)GlcNAc(b1-2)Man(a1-3)[Neu5Ac(a2-3)Gal(b1-4)GlcNAc(b1-2)Man(a1-6)]Man(b1-4)GlcNAc(b1-4)GlcNAc
# In short: (§1)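 Arrays were curated from the Consortium for Functional Glycomics database, 3228 in total, and kept only where the protein sequence was available. Binding is expressed as a within-array Z-score. This score was averaged across arrays of the same protein sequence at different concentrations or buffers and across linkers, and negative values can be read as non-binding.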
# [2] = biological target: Neu5Ac(a2-6)Gal(b1-4)GlcNAc(b1-2)Man(a1-3)[Neu5Ac(a2-6)Gal(b1-4)GlcNAc(b1-2)Man(a1-6)]Man(b1-4)GlcNAc(b1-4)GlcNAc
# In short: as §1
# [3] = biological target: Neu5Ac(a2-6)Gal(b1-4)GlcNAc(b1-2)Man(a1-3)[Neu5Ac(a2-6)Gal(b1-4)GlcNAc(b1-2)Man(a1-6)]Man(b1-4)GlcNAc(b1-4)[Fuc(a1-6)]GlcNAc
# In short: as §1
# [4] = biological target: Neu5Ac(a2-6)Gal(b1-4)GlcNAc(b1-2)Man(a1-6)Man(b1-4)GlcNAc(b1-4)GlcNAc
# In short: as §1
# [5] = biological target: Neu5Ac(a2-6)Gal(b1-4)GlcNAc(b1-2)Man(a1-6)[Gal(b1-4)GlcNAc(b1-2)Man(a1-3)]Man(b1-4)GlcNAc(b1-4)GlcNAc
# In short: as §1
# [6] = biological target: Neu5Ac(a2-6)Gal(b1-4)GlcNAc(b1-2)Man(a1-6)[GlcNAc(b1-2)Man(a1-3)]Man(b1-4)GlcNAc(b1-4)GlcNAc
# In short: as §1
# [7] = biological target: Neu5Ac(a2-6)Gal(b1-4)GlcNAc(b1-2)Man(a1-6)[Man(a1-3)]Man(b1-4)GlcNAc(b1-4)GlcNAc
# In short: as §1
# [8] = biological target: Neu5Ac(a2-6)Gal(b1-4)GlcNAc(b1-2)[Neu5Ac(a2-6)Gal(b1-4)GlcNAc(b1-4)]Man(a1-3)[GlcNAc(b1-4)][Neu5Ac(a2-6)Gal(b1-4)GlcNAc(b1-2)[Neu5Ac(a2-6)Gal(b1-4)GlcNAc(b1-6)]Man(a1-6)]Man(b1-4)GlcNAc(b1-4)GlcNAc
# In short: as §1
# [9] = biological target: Neu5Ac(a2-6)Gal(b1-4)GlcNAc(b1-2)[Neu5Ac(a2-6)Gal(b1-4)GlcNAc(b1-4)]Man(a1-3)[GlcNAc(b1-4)][Neu5Ac(a2-6)Gal(b1-4)GlcNAc(b1-4)Man(a1-6)]Man(b1-4)GlcNAc(b1-4)GlcNAc
# In short: as §1
# [10] = biological target: Neu5Ac(a2-6)Gal(b1-4)GlcNAc(b1-2)[Neu5Ac(a2-6)Gal(b1-4)GlcNAc(b1-6)]Man(a1-6)[Neu5Ac(a2-6)Gal(b1-4)GlcNAc(b1-2)Man(a1-3)][GlcNAc(b1-4)]Man(b1-4)GlcNAc(b1-4)GlcNAc
# In short: as §1
# [11] = biological target: Neu5Ac(a2-6)Gal(b1-4)GlcNAc(b1-3)Gal(b1-3)GlcNAc
# In short: as §1
# [12] = biological target: Neu5Ac(a2-6)Gal(b1-4)GlcNAc(b1-3)Gal(b1-4)GlcNAc
# In short: as §1
# [13] = biological target: Neu5Ac(a2-6)Gal(b1-4)GlcNAc(b1-3)Gal(b1-4)GlcNAc(b1-2)Man(a1-3)[Neu5Ac(a2-6)Gal(b1-4)GlcNAc(b1-3)Gal(b1-4)GlcNAc(b1-2)Man(a1-6)]GalNAc
# In short: as §1
# [14] = biological target: Neu5Ac(a2-6)Gal(b1-4)GlcNAc(b1-3)Gal(b1-4)GlcNAc(b1-3)Gal(b1-4)GlcNAc
# In short: as §1
# [15] = biological target: Neu5Ac(a2-6)Gal(b1-4)GlcNAc(b1-3)Gal(b1-4)GlcNAc(b1-3)Gal(b1-4)GlcNAc(b1-2)Man(a1-3)[Neu5Ac(a2-6)Gal(b1-4)GlcNAc(b1-3)Gal(b1-4)GlcNAc(b1-3)Gal(b1-4)GlcNAc(b1-2)Man(a1-6)]GalNAc
# In short: as §1
# [16] = biological target: Neu5Ac(a2-6)Gal(b1-4)GlcNAc(b1-3)Gal(b1-4)GlcNAc(b1-3)GalNAc
# In short: as §1
# [17] = biological target: Neu5Ac(a2-6)Gal(b1-4)GlcNAc(b1-3)Gal(b1-4)GlcNAc(b1-3)[Neu5Ac(a2-6)Gal(b1-4)GlcNAc(b1-3)Gal(b1-4)GlcNAc(b1-6)]GalNAc
# In short: as §1
# [18] = biological target: Neu5Ac(a2-6)Gal(b1-4)GlcNAc(b1-3)Gal(b1-4)GlcNAc(b1-6)[Gal(b1-3)]GalNAc
# In short: as §1
# [19] = biological target: Neu5Ac(a2-6)Gal(b1-4)GlcNAc(b1-3)Gal(b1-4)[Fuc(a1-3)]GlcNAc(b1-3)Gal(b1-4)[Fuc(a1-3)]GlcNAc
# In short: as §1
# [20] = biological target: Neu5Ac(a2-6)Gal(b1-4)GlcNAc(b1-3)GalNAc
# In short: as §1
# [21] = biological target: Neu5Ac(a2-6)Gal(b1-4)GlcNAc(b1-3)[Neu5Ac(a2-6)Gal(b1-4)GlcNAc(b1-6)]GalNAc
# In short: as §1
# [22] = biological target: Neu5Ac(a2-6)Gal(b1-4)GlcNAc(b1-6)GalNAc
# In short: as §1
# [23] = biological target: Neu5Ac(a2-6)Gal(b1-4)GlcNAc(b1-6)[Gal(b1-3)GlcNAc(b1-3)]Gal(b1-4)Glc
# In short: as §1
# [24] = biological target: Neu5Ac(a2-6)Gal(b1-4)GlcNAc(b1-6)[Gal(b1-3)]GalNAc
# In short: as §1
# [25] = biological target: Neu5Ac(a2-6)Gal(b1-4)GlcNAc6S
# In short: as §1
# Neu5Ac(a2-6)GalNAc = biological target: Neu5Ac(a2-6)GalNAc
# In short: as §1
# [26] = biological target: Neu5Ac(a2-6)GalNAc(b1-4)GlcNAc
# In short: as §1
# [27] = biological target: Neu5Ac(a2-6)GalNAc(b1-4)GlcNAc6S
# In short: as §1
# [28] = biological target: Neu5Ac(a2-6)GlcNAc(b1-4)GlcNAc
# In short: as §1
# [29] = biological target: Neu5Ac(a2-6)GlcNAc(b1-4)GlcNAc(b1-4)GlcNAc
# In short: as §1
binder,measurement,setting,value
B1,glycan array binding signal (z-score),[1],-0.104
same,glycan array binding signal (z-score),[2],-0.46
same,glycan array binding signal (z-score),[3],-2.48
same,glycan array binding signal (z-score),[4],-0.877
same,glycan array binding signal (z-score),[5],-1.02
same,glycan array binding signal (z-score),[6],-1.35
same,glycan array binding signal (z-score),[7],0.335
same,glycan array binding signal (z-score),[8],-1.02
same,glycan array binding signal (z-score),[9],1.29
same,glycan array binding signal (z-score),[10],-0.775
same,glycan array binding signal (z-score),[11],-1.81
same,glycan array binding signal (z-score),[12],-1.47
same,glycan array binding signal (z-score),[13],-1.41
same,glycan array binding signal (z-score),[14],-0.859
same,glycan array binding signal (z-score),[15],-1.2
same,glycan array binding signal (z-score),[16],1.26
same,glycan array binding signal (z-score),[17],-1.39
same,glycan array binding signal (z-score),[18],-1.05
same,glycan array binding signal (z-score),[19],-1.59
same,glycan array binding signal (z-score),[20],-0.238
same,glycan array binding signal (z-score),[21],-1.05
same,glycan array binding signal (z-score),[22],-0.167
same,glycan array binding signal (z-score),[23],0.42
same,glycan array binding signal (z-score),[24],-1.62
same,glycan array binding signal (z-score),[25],0.601
same,glycan array binding signal (z-score),Neu5Ac(a2-6)GalNAc,0.753
same,glycan array binding signal (z-score),[26],0.913
same,glycan array binding signal (z-score),[27],0.553
same,glycan array binding signal (z-score),[28],-0.406
same,glycan array binding signal (z-score),[29],-1.14

# In another format: results already given
binder	measurement	setting	value
B1	glycan array binding signal (z-score)	[10]	-0.775
same	glycan array binding signal (z-score)	[29]	-1.14
